Data from the M2OR odorant receptor database.
Residue numbers refer to the chain shown, from its start. The list shows a part of the results, in another mix than the full data. Calls are pooled over several reports, among them a noisy single-well screen. The list shows a part of the results. The list shows a part of the results.

Chains of the proteins cited; added tags and fusions are not shown. Chains listed by the source or under a name are the forms on record and can include a tag or linker.
OR5L1, as listed by the source: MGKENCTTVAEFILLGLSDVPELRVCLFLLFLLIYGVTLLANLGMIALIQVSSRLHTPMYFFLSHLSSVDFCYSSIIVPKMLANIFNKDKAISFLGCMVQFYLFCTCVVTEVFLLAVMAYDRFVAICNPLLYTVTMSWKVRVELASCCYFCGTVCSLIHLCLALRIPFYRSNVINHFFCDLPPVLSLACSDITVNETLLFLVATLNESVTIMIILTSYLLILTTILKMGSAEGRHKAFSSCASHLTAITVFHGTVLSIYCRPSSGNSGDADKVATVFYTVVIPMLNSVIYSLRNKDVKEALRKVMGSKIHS

Tests used:
Settings in all cases: stereoisomer not certain
OR5H1 = system: T1, OR5H1
T1 sequence (whole entry): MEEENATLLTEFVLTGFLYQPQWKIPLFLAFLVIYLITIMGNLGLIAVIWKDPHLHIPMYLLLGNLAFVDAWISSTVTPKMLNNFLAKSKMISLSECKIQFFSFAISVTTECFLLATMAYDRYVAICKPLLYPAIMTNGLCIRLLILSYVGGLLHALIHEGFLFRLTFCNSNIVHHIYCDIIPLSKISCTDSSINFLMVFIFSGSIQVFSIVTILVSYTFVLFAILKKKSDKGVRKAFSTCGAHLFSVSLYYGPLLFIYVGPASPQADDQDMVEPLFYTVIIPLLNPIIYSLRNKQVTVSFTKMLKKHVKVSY
Outline: (§1)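 Each entry records the cell line, G-protein, co-transfected protein and tags used. Methods varied with the source, often transient luciferase assays in mammalian cell lines. A receptor–molecule pair is called responsive (active) if the original authors judged its signal statistically different from baseline and non-responsive (inactive) otherwise.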

OR5H2 [1] = system: T2, OR5H2
T2 sequence (whole entry): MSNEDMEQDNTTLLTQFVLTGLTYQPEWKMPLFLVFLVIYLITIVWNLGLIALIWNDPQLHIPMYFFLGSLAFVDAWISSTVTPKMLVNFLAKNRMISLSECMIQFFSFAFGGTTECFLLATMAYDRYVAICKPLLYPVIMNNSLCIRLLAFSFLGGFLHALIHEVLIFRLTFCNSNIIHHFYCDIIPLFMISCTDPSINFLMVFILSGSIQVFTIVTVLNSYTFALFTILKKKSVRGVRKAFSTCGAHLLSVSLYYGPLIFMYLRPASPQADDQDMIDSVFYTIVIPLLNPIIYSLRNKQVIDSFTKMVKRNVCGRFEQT
Outline: as §1

OR5H2 [2] = system: T3, OR5H2; remark: listed apart in the source
T3 sequence (whole entry): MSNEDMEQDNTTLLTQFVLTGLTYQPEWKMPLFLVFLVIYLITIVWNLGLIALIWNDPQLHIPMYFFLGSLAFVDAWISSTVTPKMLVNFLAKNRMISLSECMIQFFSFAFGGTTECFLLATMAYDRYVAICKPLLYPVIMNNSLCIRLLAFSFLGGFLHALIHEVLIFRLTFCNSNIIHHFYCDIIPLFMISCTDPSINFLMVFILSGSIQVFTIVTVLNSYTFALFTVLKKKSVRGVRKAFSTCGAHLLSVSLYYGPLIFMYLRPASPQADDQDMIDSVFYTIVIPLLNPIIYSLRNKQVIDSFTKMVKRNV
Outline: as §1

OR5H6 [3] = system: T4, OR5H6
T4 sequence (whole entry): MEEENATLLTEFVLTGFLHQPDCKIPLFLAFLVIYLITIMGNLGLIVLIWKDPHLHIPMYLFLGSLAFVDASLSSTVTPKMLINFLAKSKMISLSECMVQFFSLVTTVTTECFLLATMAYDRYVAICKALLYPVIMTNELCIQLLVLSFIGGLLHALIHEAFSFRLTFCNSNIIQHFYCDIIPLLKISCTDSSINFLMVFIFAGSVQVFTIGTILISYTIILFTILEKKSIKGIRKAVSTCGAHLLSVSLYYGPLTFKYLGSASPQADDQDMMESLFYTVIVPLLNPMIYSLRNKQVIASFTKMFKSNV
Outline: as §1

OR5H6 [4] = system: T5, OR5H6; remark: listed apart in the source
T5 sequence (whole entry): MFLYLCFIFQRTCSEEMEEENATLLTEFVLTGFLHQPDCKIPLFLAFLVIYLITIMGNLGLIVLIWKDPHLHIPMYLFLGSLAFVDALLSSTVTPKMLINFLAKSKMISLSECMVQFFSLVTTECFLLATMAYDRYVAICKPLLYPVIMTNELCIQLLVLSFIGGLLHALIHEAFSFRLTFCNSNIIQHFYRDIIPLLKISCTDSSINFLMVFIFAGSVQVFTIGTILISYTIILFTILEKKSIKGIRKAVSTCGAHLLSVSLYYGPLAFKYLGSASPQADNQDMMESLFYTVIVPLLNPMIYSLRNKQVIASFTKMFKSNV
Outline: as §1

OR5I1 (Homo sapiens) = biological target: T6, OR5I1 (Homo sapiens) (UniProt Q13606)
T6 sequence (whole entry): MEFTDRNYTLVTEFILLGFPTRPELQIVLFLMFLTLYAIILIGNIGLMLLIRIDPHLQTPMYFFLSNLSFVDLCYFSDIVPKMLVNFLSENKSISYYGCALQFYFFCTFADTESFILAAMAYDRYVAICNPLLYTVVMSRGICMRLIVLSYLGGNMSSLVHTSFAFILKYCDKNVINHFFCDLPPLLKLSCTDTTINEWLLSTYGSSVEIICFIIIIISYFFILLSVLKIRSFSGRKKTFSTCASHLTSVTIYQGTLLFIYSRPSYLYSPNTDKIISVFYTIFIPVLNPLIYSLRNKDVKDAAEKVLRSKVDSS
Outline: as §1

OR5J2 (Homo sapiens) = biological target: T7, OR5J2 (Homo sapiens) (UniProt Q8NH18)
T7 sequence (whole entry): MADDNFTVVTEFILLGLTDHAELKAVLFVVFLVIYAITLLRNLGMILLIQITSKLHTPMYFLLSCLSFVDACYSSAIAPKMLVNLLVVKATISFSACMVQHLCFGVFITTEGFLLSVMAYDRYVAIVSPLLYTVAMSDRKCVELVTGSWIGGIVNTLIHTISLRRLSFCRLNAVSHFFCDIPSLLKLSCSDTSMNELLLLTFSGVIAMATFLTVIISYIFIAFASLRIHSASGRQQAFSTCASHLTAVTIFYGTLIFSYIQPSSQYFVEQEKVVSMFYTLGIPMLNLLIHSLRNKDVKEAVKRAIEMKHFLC
Outline: as §1

OR5K1 (Homo sapiens) = biological target: T8, OR5K1 (Homo sapiens) (UniProt Q8NHB7)
T8 sequence (whole entry): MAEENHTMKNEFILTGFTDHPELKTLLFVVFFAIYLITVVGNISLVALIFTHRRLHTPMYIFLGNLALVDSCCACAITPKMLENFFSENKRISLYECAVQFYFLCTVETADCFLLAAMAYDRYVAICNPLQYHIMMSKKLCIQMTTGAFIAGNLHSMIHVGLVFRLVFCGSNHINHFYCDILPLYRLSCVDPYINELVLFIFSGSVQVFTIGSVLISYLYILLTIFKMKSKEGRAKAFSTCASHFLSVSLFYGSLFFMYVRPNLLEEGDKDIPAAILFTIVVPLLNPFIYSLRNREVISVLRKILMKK
Outline: as §1

OR5K2 (Homo sapiens) = biological target: T9, OR5K2 (Homo sapiens) (UniProt Q8NHB8)
T9 sequence (whole entry): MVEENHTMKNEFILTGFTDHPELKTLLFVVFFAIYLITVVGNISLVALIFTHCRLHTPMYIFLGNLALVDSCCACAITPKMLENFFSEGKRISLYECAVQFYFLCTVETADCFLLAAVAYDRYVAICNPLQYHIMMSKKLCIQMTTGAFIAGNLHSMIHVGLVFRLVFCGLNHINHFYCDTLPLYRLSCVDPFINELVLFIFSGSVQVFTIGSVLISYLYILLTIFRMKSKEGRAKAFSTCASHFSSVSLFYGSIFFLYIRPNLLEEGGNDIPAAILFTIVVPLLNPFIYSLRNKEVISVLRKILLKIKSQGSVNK
Outline: as §1

OR5K3 = system: T10, OR5K3
T10 sequence (whole entry): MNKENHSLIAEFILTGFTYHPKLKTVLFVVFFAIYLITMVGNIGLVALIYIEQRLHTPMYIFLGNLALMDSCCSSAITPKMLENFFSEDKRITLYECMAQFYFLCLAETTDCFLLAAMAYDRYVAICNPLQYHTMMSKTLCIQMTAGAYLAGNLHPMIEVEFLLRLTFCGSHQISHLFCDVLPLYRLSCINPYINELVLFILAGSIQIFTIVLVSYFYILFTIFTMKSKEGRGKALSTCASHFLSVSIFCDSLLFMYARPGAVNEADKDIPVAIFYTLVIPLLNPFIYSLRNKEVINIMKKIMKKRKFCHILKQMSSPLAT
Outline: as §1

OR5K4 = system: T11, OR5K4
T11 sequence (whole entry): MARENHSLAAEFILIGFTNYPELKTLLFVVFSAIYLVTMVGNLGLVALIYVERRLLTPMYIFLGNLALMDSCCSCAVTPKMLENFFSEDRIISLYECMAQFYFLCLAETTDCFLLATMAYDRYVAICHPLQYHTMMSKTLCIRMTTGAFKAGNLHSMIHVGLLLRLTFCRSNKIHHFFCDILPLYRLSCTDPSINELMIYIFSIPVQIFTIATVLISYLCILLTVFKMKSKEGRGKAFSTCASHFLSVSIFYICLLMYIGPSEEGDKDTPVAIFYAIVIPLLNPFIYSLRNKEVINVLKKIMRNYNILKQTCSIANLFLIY
Outline: as §1

OR5L1 (Homo sapiens) = biological target: T12, OR5L1 (Homo sapiens) (UniProt Q8NGL2)
T12 sequence (whole entry): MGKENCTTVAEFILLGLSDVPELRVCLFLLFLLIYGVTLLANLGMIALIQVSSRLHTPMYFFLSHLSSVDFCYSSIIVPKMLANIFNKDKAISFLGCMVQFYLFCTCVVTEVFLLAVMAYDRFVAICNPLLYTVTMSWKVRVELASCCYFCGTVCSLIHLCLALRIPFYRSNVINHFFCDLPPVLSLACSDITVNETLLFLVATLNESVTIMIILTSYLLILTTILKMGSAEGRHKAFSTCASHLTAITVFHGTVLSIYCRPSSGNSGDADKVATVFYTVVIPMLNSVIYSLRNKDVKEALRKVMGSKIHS
Outline: as §1

OR5L1 = system: T13, OR5L1
T13 sequence (whole entry): T12 sequence (whole entry) with T240S
Outline: as §1

Measured: odorant receptor agonist call

CC1=CCC(C(C)(C)O)CC1 (stereo unspecified)
inactive: all assays above

CC1CCC(C(C)C)C(O)C1 (stereo unspecified)
active: OR5H1 | OR5H6 [3]
inactive: all other assays above

CCCC(=O)O
inactive: all assays above

CCCCCCCC=O
inactive: all assays above

CC(=O)OC1CC2CCC1(C)C2(C)C (stereo unspecified)
inactive: all assays above

C=CC(C)(O)CCC=C(C)C (stereo unspecified)
inactive: all assays above

CC12CCC(C1)C(C)(C)C2=O (stereo unspecified)
inactive: all assays above

CC(C)C=O
inactive: all assays above

Quoted at random: two compounds from above.
CC(=O)OC1CC2CCC1(C)C2(C)C (stereo unspecified)
inactive: all assays above

C=CC(C)(O)CCC=C(C)C (stereo unspecified)
inactive: all assays above

The list continues:

CC(=O)OCC=C(C)CCC=C(C)C
active: OR5J2 (Homo sapiens) | OR5K4
inactive: all other assays above

c1cnccn1
inactive: all assays above

c1ccc(Oc2ccccc2)cc1
inactive: all assays above

CC(C)=CCCC(C)=CC=O
inactive: all assays above
